In the supplement of paper PMC7646827:
Structures can show the parent of a compound that is named as a salt. Many values rest on one well or one pass, so single values are uncertain.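 All cells are established human bladder cancer lines, one of them grown from a patient-derived xenograft. Viability was read by a luminescent ATP assay as percent inhibition versus vehicle over a seven-point dilution series; the paper calls scores above 59 very active, 30–59 active, 21–29 semi-active, 9–20 low active and below 9 inactive.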

Experiments:
Assay in all cases: drug sensitivity score DSS3 (score 0-100); higher = more sensitive; extreme values may be limits of the assay
Conditions in all cases: culture: 3D, ultra-low attachment; treatment time: 5 days
5637 = test system: 5637
UM-UC-9 = test system: UM-UC-9
BC8149 = test system: BC8149
TCCSUP = test system: TCCSUP
UM-UC-1 = test system: UM-UC-1
SCaBER = test system: SCaBER
UM-UC-15 = test system: UM-UC-15
UM-UC-3 = test system: UM-UC-3
UM-UC-14 = test system: UM-UC-14
J82 = test system: J82
UM-UC-5 = test system: UM-UC-5
UM-UC-12 = test system: UM-UC-12
UM-UC-18 = test system: UM-UC-18
UM-UC-17 = test system: UM-UC-17
UM-UC-6 = test system: UM-UC-6
SW780 = test system: SW780
T-24 = test system: T-24

Row | Structure (SMILES) | drug sensitivity score DSS3 5637 | drug sensitivity score DSS3 (UM-UC-9) | drug sensitivity score DSS3 (BC8149) | drug sensitivity score DSS3 (TCCSUP) | drug sensitivity score DSS3 (UM-UC-1) | drug sensitivity score DSS3 (SCaBER) | drug sensitivity score DSS3 (UM-UC-15) | drug sensitivity score DSS3 (UM-UC-3) | drug sensitivity score DSS3 (UM-UC-14) | drug sensitivity score DSS3 (J82) | drug sensitivity score DSS3 (UM-UC-5) | drug sensitivity score DSS3 (UM-UC-12) | drug sensitivity score DSS3 (UM-UC-18) | drug sensitivity score DSS3 (UM-UC-17) | drug sensitivity score DSS3 (UM-UC-6) | drug sensitivity score DSS3 (SW780) | drug sensitivity score DSS3 (T-24)
1 | CCC[C@H](NC(=O)/C(C#N)=C/c1cccc(Br)n1)c1ccccc1 [Degrasyn (WP1130)] (max dose 10000 nM) | 0.365 | 0 | 3.15 | 0.835 | 0 | 2.41 | 0 | 3.39 | 0.151 | 0 | 2.02 | 1.01 | 0 | 6.18 | 0 | 0.0461 | 0
2 | Nc1nc2cc(-c3ccc4ncc(C(=O)N5CCOCC5)n4c3)ccc2o1 [Serabelisib (INK-1117,MLN-1117,TAK-117)] (max dose 10000 nM) | 0 | 0 | 0.863 | 0.0721 | 0 | 0.705 | 0 | 0 | 0.0319 | 0 | 1.22 | 0.647 | 0 | 0 | 0 | 0 | 0
3 | c1cc(CN2CCCNCCNCCCNCC2)ccc1CN1CCCNCCNCCCNCC1 [Plerixafor (AMD3100), Plerixafor 8HCl (AMD3100 8HCl)] (max dose 10000 nM) | 0.862 | 0 | 0 | 0.035 | 0 | 0 | 0 | 0 | 0 | 0 | 0 | 0 | 0 | 0.0615 | 0 | 0 | 0
4 | CNCc1ccc(C)c(NC(=O)c2ccc(Nc3nc(-c4ccccc4)c4ccccc4n3)cc2)c1 (max dose 10000 nM) | 0 | 0 | 0 | 0 | 0 | 0 | 0.253 | 0.751 | 0 | 0 | 0 | 0 | 0 | 0 | 0 | 1.76 | 0
5 | CCN(c1cc(-c2ccc(CN3CCOCC3)cc2)cc(C(=O)NCc2c(C)cc(C)[nH]c2=O)c1C)C1CCOCC1 [tazemetostat] (max dose 5000 nM) | 5.75 | 0 | 0 | 14.5 | 6.22 | 0 | 0 | 0 | 2.69 | 0 | 0 | 0 | 0 | 5.1 | 6.87 | 0.18 | 0
6 | CC(C)(C)c1nc(-c2cccc(NS(=O)(=O)c3c(F)cccc3F)c2F)c(-c2ccnc(N)n2)s1 [Dabrafenib] (max dose 10000 nM) | 2.71 | 0 | 1.05 | 3.24 | 0 | 1.2 | 0.103 | 0.947 | 0 | 0 | 0 | 0 | 0 | 0 | 0 | 0 | 0.27
7 | COC(=O)[C@H](CCSC)NC(=O)c1ccc(NC[C@@H](N)CS)cc1-c1ccccc1 [FTI 277 HCl] (max dose 10000 nM) | 8.15 | 0 | 2.24 | 5.38 | 36.1 | 0 | 0 | 1.16 | 0.741 | 0 | 0 | 0 | 0 | 1.08 | 2.32 | 0 | 0
8 | CCN1CCN(Cc2ccc(-c3cc4c(N[C@H](C)c5ccccc5)ncnc4[nH]3)cc2)CC1 [AEE788 (NVP-AEE788)] (max dose 10000 nM) | 5.56 | 1.11 | 0 | 0.984 | 0.724 | 1.06 | 0 | 1.14 | 1.14 | 0 | 0 | 3.41 | 3.71 | 0.907 | 1.93 | 0 | 1.52
9 | CCC(=O)Nc1cccc(Oc2nc(Nc3ccc(N4CCN(C)CC4)cc3OC)ncc2Cl)c1 [WZ4003] (max dose 10000 nM) | 0 | 0 | 2.35 | 2.18 | 0 | 1.56 | 0 | 0 | 0 | 0 | 0 | 3.91 | 0.729 | 0 | 0 | 0 | 0
10 | CCCS(=O)(=O)Nc1ccc(F)c(C(=O)c2c[nH]c3ncc(-c4ccc(Cl)cc4)cc23)c1F [Vemurafenib (PLX4032, RG7204)] (max dose 10000 nM) | 2.24 | 0 | 1.37 | 0.121 | 0.0831 | 0 | 0 | 0.778 | 2.24 | 0 | 0 | 0 | 2.58 | 0 | 1.44 | 0 | 0
11 | CC(C(=O)O)c1ccc2c(c1)[nH]c1ccc(Cl)cc12 (centres undefined) [Carprofen] (max dose 10000 nM) | 0 | 0 | 0 | 0 | 0 | 0 | 0 | 0 | 0 | 0 | 0 | 0 | 0 | 0 | 0 | 0 | 0
12 | CN(C)c1nc(N(C)C)nc(N(C)C)n1 [Altretamine] (max dose 10000 nM) | 0 | 0 | 0 | 0 | 0 | 0 | 0 | 0 | 0 | 0 | 0 | 0 | 0 | 0 | 0 | 0 | 0

Exported as tab-separated lines: 2 of the compounds above.
Row	Structure (SMILES)	drug sensitivity score DSS3 5637	drug sensitivity score DSS3 (UM-UC-9)	drug sensitivity score DSS3 (BC8149)	drug sensitivity score DSS3 (TCCSUP)	drug sensitivity score DSS3 (UM-UC-1)	drug sensitivity score DSS3 (SCaBER)	drug sensitivity score DSS3 (UM-UC-15)	drug sensitivity score DSS3 (UM-UC-3)	drug sensitivity score DSS3 (UM-UC-14)	drug sensitivity score DSS3 (J82)	drug sensitivity score DSS3 (UM-UC-5)	drug sensitivity score DSS3 (UM-UC-12)	drug sensitivity score DSS3 (UM-UC-18)	drug sensitivity score DSS3 (UM-UC-17)	drug sensitivity score DSS3 (UM-UC-6)	drug sensitivity score DSS3 (SW780)	drug sensitivity score DSS3 (T-24)
6	CC(C)(C)c1nc(-c2cccc(NS(=O)(=O)c3c(F)cccc3F)c2F)c(-c2ccnc(N)n2)s1 [Dabrafenib] (max dose 10000 nM)	2.71	0	1.05	3.24	0	1.2	0.103	0.947	0	0	0	0	0	0	0	0	0.27
7	COC(=O)[C@H](CCSC)NC(=O)c1ccc(NC[C@@H](N)CS)cc1-c1ccccc1 [FTI 277 HCl] (max dose 10000 nM)	8.15	0	2.24	5.38	36.1	0	0	1.16	0.741	0	0	0	0	1.08	2.32	0	0
